From PubChem BioAssay AID330 (DTP/NCI, 2004) come the findings set out here.

SMILES strings stand for the structures. The list does not hold the whole screen: it is rich in T/C values a quarter to a half above the control, in often repeated tests (any T/C) and in doses without a T/C. Other doses and runs of a compound stand elsewhere. T/C gives the treated animals as a percentage of the vehicle group. Some entries give survivors of the animals treated and no T/C: the source holds a T/C of zero for them, seemingly a mark for toxic or unscored doses. Some doses without a T/C left all or most animals alive at the check, yet need not have been tolerated: the source hardly ever lists a survival T/C far under the control, and the zero likely stands for such cases as well. Counts of survivors are from the toxicity check (mostly the fifth day) where no day follows; animals may have died later. Schedules are NCI's codes, read here as Q, the interval in days (D) or hours (H), X, the number of doses. Signs of the kind (2×) give the number of equal values in this list. Some entries were tested several times; their values stand side by side, smallest first. Where survival is the endpoint, this PubChem deposit counts one and a half times the control or more as active, and values a quarter to a half above the control carry no call in these data; other NCI protocols may use other cut-offs. Some T/C values are followed by the survivors on the day toxicity was checked, most often the fifth; where none is given, no animal had died by that day.

The test system of the experiment is P388 leukemia ip, CD2F1 mice, survival T/C. Nature of the experiment: NCI In Vivo Anticancer Drug Screen. Data for tumor model P388 Leukemia (intraperitoneal) in CD2F1 (CDF1) mice. As to conditions: T/C endpoint: median survival time, higher T/C = longer survival.
The mark [1] stands for this setting: dose: 100.0 mg/kg/injection, schedule: Q01DX005 (ip), vehicle: Klucel (hydroxypropylcellulose) (HPC).
Where [2] appears, read: dose: 200.0 mg/kg/injection, schedule: Q01DX005 (ip), vehicle: Klucel (hydroxypropylcellulose) (HPC).

With `S=P(N1CC1)(N1CC1)N1CC1`, the T/C is 132 % of control (dose: 1.5 mg/kg/injection, schedule: Q01DX005 (ip), vehicle: saline); 148 % of control (dose: 1.5 mg/kg/injection, schedule: Q01DX009 (ip), vehicle: saline, evaluated on day 30); 135 % of control (dose: 1.5 mg/kg/injection, schedule: Q01DX009 (ip), vehicle: saline, evaluated on day 60); 129 % of control (dose: 2.5 mg/kg/injection, schedule: Q01DX005 (ip), vehicle: saline); 125 % of control (dose: 2.5 mg/kg/injection, schedule: Q04DX003 (ip), vehicle: water); 145 and 148 % of control (dose: 3.0 mg/kg/injection, schedule: Q01DX005 (ip), vehicle: saline). In addition, the T/C runs as follows: (dose: 5.0 mg/kg/injection, schedule: Q04DX003 (ip), vehicle: water) 128 and 135 % of control; (dose: 5.4 mg/kg/injection, schedule: Q04DX002 (ip), vehicle: saline) 133 % of control. For the same molecule, the survivor count runs as follows: (dose: 10.0 mg/kg/injection, schedule: Q01DX005 (ip), vehicle: saline) 8 of 8; (dose: 12.0 mg/kg/injection, schedule: Q01DX005 (ip), vehicle: saline) 6 of 8 and 6 of 6; (dose: 12.0 mg/kg/injection, schedule: Q01DX009 (ip), vehicle: saline) 6 of 6 (2×); (dose: 16.0 mg/kg/injection, schedule: Q01DX009 (ip), vehicle: saline) 6 of 6; (dose: 24.0 mg/kg/injection, schedule: Q01DX009 (ip), vehicle: saline) 6 of 6; (dose: 32.0 mg/kg/injection, schedule: Q01DX009 (ip), vehicle: saline) 6 of 6.

With `N#[N+]c1c([O-])ccc2ccccc12`, the survivor count is 6 of 6 (dose: 100.0 mg/kg/injection, schedule: Q04DX002 (ip), vehicle: Klucel (hydroxypropylcellulose) (HPC)); 6 of 6 (dose: 200.0 mg/kg/injection, schedule: Q04DX002 (ip), vehicle: Klucel (hydroxypropylcellulose) (HPC)); 6 of 6 (dose: 400.0 mg/kg/injection, schedule: Q04DX002 (ip), vehicle: Klucel (hydroxypropylcellulose) (HPC)).

On to `O=Cc1ccccc1/C=C/C(=O)/C=C/c1ccccc1C=O`, for which the survivor count under setting [1] was 1 of 5 and the survivor count under setting [2] is reported as 0 of 5.

In the case of `CCOC(=O)c1c2c(c[nH]c1=O)CCCC2`, where the note is “dose: 400.0 mg/kg/injection, schedule: Q01DX001 (ip), vehicle: saline with Tween-80”, the survivor count was 0 of 6.

With `O=S1(=O)CS(=O)(=O)OCCO1`, the T/C (dose: 15.0 mg/kg/injection, schedule: Q01DX005 (ip), vehicle: Klucel (hydroxypropylcellulose) (HPC), evaluated on day 30) is 182 % of control; the T/C (dose: 15.0 mg/kg/injection, schedule: Q01DX005 (ip), vehicle: Klucel (hydroxypropylcellulose) (HPC), evaluated on day 45) was 213 % of control; the T/C (dose: 15.0 mg/kg/injection, schedule: Q01DX005 (ip), vehicle: Klucel (hydroxypropylcellulose) (HPC), evaluated on day 60) was 199 and 206 % of control; the T/C (dose: 22.0 mg/kg/injection, schedule: Q01DX005 (ip), vehicle: Klucel (hydroxypropylcellulose) (HPC), evaluated on day 30) was 283 % of control; the T/C (dose: 22.0 mg/kg/injection, schedule: Q01DX005 (ip), vehicle: Klucel (hydroxypropylcellulose) (HPC), evaluated on day 45) is recorded as 297, 339, 412 % of control; the T/C (dose: 22.0 mg/kg/injection, schedule: Q01DX005 (ip), vehicle: Klucel (hydroxypropylcellulose) (HPC), evaluated on day 60) was 256, 281, 566 % of control. The T/C is 283 % of control (dose: 33.0 mg/kg/injection, schedule: Q01DX005 (ip), vehicle: Klucel (hydroxypropylcellulose) (HPC), evaluated on day 30); 378 [9 of 10 alive], 412, 436 % of control (dose: 33.0 mg/kg/injection, schedule: Q01DX005 (ip), vehicle: Klucel (hydroxypropylcellulose) (HPC), evaluated on day 45); 566, 588, 625 % of control (dose: 33.0 mg/kg/injection, schedule: Q01DX005 (ip), vehicle: Klucel (hydroxypropylcellulose) (HPC), evaluated on day 60); 154, 277, 283 % of control [9 of 10 alive] (dose: 50.0 mg/kg/injection, schedule: Q01DX005 (ip), vehicle: Klucel (hydroxypropylcellulose) (HPC), evaluated on day 30); 405 [9 of 10 alive], 412, 436 % of control (dose: 50.0 mg/kg/injection, schedule: Q01DX005 (ip), vehicle: Klucel (hydroxypropylcellulose) (HPC), evaluated on day 45); 566, 588, 625 % of control (dose: 50.0 mg/kg/injection, schedule: Q01DX005 (ip), vehicle: Klucel (hydroxypropylcellulose) (HPC), evaluated on day 60). Moreover, the T/C (dose: 75.0 mg/kg/injection, schedule: Q01DX005 (ip), vehicle: Klucel (hydroxypropylcellulose) (HPC)) is 138 % of control [7 of 10 alive]. The survivor count under setting [1] is 0 of 5 and 0 of 6; the survivor count under setting [2] is on record as 0 of 5.

For the molecule `Cc1cc(O)c2c(c1)C(=O)C13C(=C2O)C(=O)C2C(O)C1C1C(O)C3C(=O)C3=C(O)c4c(O)cc(C)cc4C(=O)C321` (stereo not given), the survivor count was 6 of 6 (dose: 12.5 mg/kg/injection, schedule: Q01DX005 (ip), vehicle: Klucel (hydroxypropylcellulose) (HPC)); 2 of 6 (dose: 25.0 mg/kg/injection, schedule: Q01DX005 (ip), vehicle: Klucel (hydroxypropylcellulose) (HPC)); 1 of 6 and 5 of 6 (dose: 50.0 mg/kg/injection, schedule: Q01DX005 (ip), vehicle: Klucel (hydroxypropylcellulose) (HPC)); 0 of 6 under setting [1]; 0 of 6 under setting [2].

As for `C=C1C(=O)O[C@H]2C3OC3(C)CC/C=C(/C(=O)OC)[C@@H](OC(C)=O)[C@H](OC(=O)C3(C)OC3C)[C@H]12` (stereo not given in full), the survivor count is, setting by setting: (dose: 15.0 mg/kg/injection, schedule: Q01DX009 (ip), vehicle: Klucel (hydroxypropylcellulose) (HPC)) 1 of 6; (dose: 30.0 mg/kg/injection, schedule: Q01DX009 (ip), vehicle: Klucel (hydroxypropylcellulose) (HPC)) 0 of 6; (dose: 60.0 mg/kg/injection, schedule: Q01DX009 (ip), vehicle: Klucel (hydroxypropylcellulose) (HPC)) 0 of 6; (dose: 120.0 mg/kg/injection, schedule: Q01DX009 (ip), vehicle: Klucel (hydroxypropylcellulose) (HPC)) 0 of 6.

For `Cc1ccc(N=CN(C)C)c(Cl)c1`, the survivor count (dose: 50.0 mg/kg/injection, schedule: Q04DX003 (ip), vehicle: Klucel (hydroxypropylcellulose) (HPC)) was 5 of 6; the survivor count (dose: 100.0 mg/kg/injection, schedule: Q04DX003 (ip), vehicle: Klucel (hydroxypropylcellulose) (HPC)) was 0 of 6; the survivor count (dose: 200.0 mg/kg/injection, schedule: Q04DX003 (ip), vehicle: Klucel (hydroxypropylcellulose) (HPC)) is on record as 0 of 6; the survivor count (dose: 400.0 mg/kg/injection, schedule: Q04DX003 (ip), vehicle: Klucel (hydroxypropylcellulose) (HPC)) is listed as 0 of 6.

`O=[N+]([O-])c1cccc2c[n+](Cc3ccc(Br)cc3)ccc12`: where the note is “dose: 50.0 mg/kg/injection, schedule: Q01DX009 (ip), vehicle: saline”, the survivor count is 1 of 6.

`CC(C)CC(=O)CC1(C)CCC(c2ccoc2)O1` (stereo not given): the survivor count (dose: 200.0 mg/kg/injection, schedule: Q01DX009 (ip), vehicle: saline with Tween-80) was 0 of 6.
